From PubChem BioAssay AID248 (DTP/NCI, 2004) come the findings set out here.

The experiment concerns L1210 leukemia ip in BDF1 mice, survival T/C. Kind of experiment: NCI In Vivo Anticancer Drug Screen. Data for tumor model L1210 Leukemia (intraperitoneal) in B6D2F1 (BDF1) mice. Conditions: higher T/C = longer survival.
[1] abbreviates: T/C endpoint: mean survival time, dose: 400.0 mg/kg/injection, schedule: Q04DX003 (ip), vehicle: saline with Tween-80.
The mark [2] stands for this setting: T/C endpoint: mean survival time, dose: 400.0 mg/kg/injection, schedule: Q01DX001 (ip), vehicle: Klucel (hydroxypropylcellulose) (HPC).
[3] abbreviates: T/C endpoint: mean survival time, dose: 100.0 mg/kg/injection, schedule: Q01DX001 (ip), vehicle: saline.
Where [4] appears, read: T/C endpoint: mean survival time, dose: 200.0 mg/kg/injection, schedule: Q01DX001 (ip), vehicle: saline.
Setting [5] is: T/C endpoint: mean survival time, dose: 400.0 mg/kg/injection, schedule: Q01DX001 (ip), vehicle: saline.
[6] abbreviates: T/C endpoint: mean survival time, dose: 50.0 mg/kg/injection, schedule: Q04DX002 (ip), vehicle: Klucel (hydroxypropylcellulose) (HPC).
Setting [7] is: T/C endpoint: mean survival time, dose: 100.0 mg/kg/injection, schedule: Q04DX002 (ip), vehicle: Klucel (hydroxypropylcellulose) (HPC).
The mark [8] stands for this setting: T/C endpoint: mean survival time, dose: 200.0 mg/kg/injection, schedule: Q04DX002 (ip), vehicle: Klucel (hydroxypropylcellulose) (HPC).
The mark [9] stands for this setting: T/C endpoint: mean survival time, dose: 400.0 mg/kg/injection, schedule: Q04DX002 (ip), vehicle: Klucel (hydroxypropylcellulose) (HPC).
[10] abbreviates: T/C endpoint: mean survival time, dose: 50.0 mg/kg/injection, schedule: Q01DX009 (ip), vehicle: carboxymethylcellulose (CMC).
[11] abbreviates: T/C endpoint: mean survival time, dose: 100.0 mg/kg/injection, schedule: Q01DX009 (ip), vehicle: carboxymethylcellulose (CMC).
[12] abbreviates: T/C endpoint: mean survival time, dose: 200.0 mg/kg/injection, schedule: Q01DX009 (ip), vehicle: carboxymethylcellulose (CMC).

The structures appear in SMILES notation. The list is a part of this screen's results and no random one: it is rich in T/C values a quarter to a half above the control, in often repeated tests (any T/C) and in doses without a T/C. Further doses and runs are listed elsewhere. T/C is the treated group as % of the vehicle group. Some doses have a count of surviving animals in place of a T/C: the source files T/C as zero there, which appears to mark a toxic dose or a test without result, not a measured value. Some survivor counts are full or nearly so, which does not show that the dose was tolerated: the source hardly ever lists a survival T/C far under the control, and the zero likely stands for such cases as well. Counts of survivors are from the toxicity check (mostly the fifth day) where no day follows; animals may have died later. Schedule codes are those of the source, read here as Q, the interval in days (D) or hours (H), X, the number of doses. Some entries hold several experiments; the values are given in rising order. Some schedules carry Z or #; the key to these is not given. Where survival is the endpoint, this PubChem deposit counts one and a half times the control or more as active, and values a quarter to a half above the control carry no call in these data; other NCI protocols may use other cut-offs. Additions like (4×) count equal records among those shown.

Take `CC(CCl)N(CCCl)Cc1cccc(Nc2ncnc3nc[nH]c23)c1` (configuration not stated): the T/C by setting is: (T/C endpoint: mean survival time, dose: 10.0 mg/kg/injection, schedule: Q01DX001 (ip), vehicle: saline) 126 and 132 % of control; (T/C endpoint: mean survival time, dose: 15.0 mg/kg/injection, schedule: Q01DX001 (ip), vehicle: saline) 135 % of control. The survivor count was 0 of 4 (T/C endpoint: mean survival time, dose: 40.0 mg/kg/injection, schedule: Q01DX001 (ip), vehicle: saline); 0 of 4 (T/C endpoint: mean survival time, dose: 50.0 mg/kg/injection, schedule: Q01DX001 (ip), vehicle: carboxymethylcellulose (CMC)); 1 of 4 (T/C endpoint: mean survival time, dose: 80.0 mg/kg/injection, schedule: Q01DX001 (ip), vehicle: saline); 0 of 4 (T/C endpoint: mean survival time, dose: 100.0 mg/kg/injection, schedule: Q01DX001 (ip), vehicle: carboxymethylcellulose (CMC)); 0 of 4 (T/C endpoint: mean survival time, dose: 200.0 mg/kg/injection, schedule: Q01DX001 (ip), vehicle: carboxymethylcellulose (CMC)); 0 of 4 (T/C endpoint: mean survival time, dose: 400.0 mg/kg/injection, schedule: Q01DX001 (ip), vehicle: carboxymethylcellulose (CMC)).
Consider `CC1([N+](=O)[O-])COP(=O)(N2CC2)OC1` (configuration not stated), for which the survivor count is, setting by setting: (T/C endpoint: mean survival time, dose: 250.0 mg/kg/injection, schedule: Q01DX Z (ip), vehicle: carboxymethylcellulose (CMC)) 3 of 6; (T/C endpoint: mean survival time, dose: 500.0 mg/kg/injection, schedule: Q01DX Z (ip), vehicle: carboxymethylcellulose (CMC)) 0 of 6.
As for `N#CCn1c(C(F)(F)F)nc2nc(Cl)c(Cl)nc21`, the survivor count reads like this: (T/C endpoint: mean survival time, dose: 200.0 mg/kg/injection, schedule: Q04DX003 (ip), vehicle: saline with Tween-80) 5 of 6; under setting [1], 2 of 6.
Regarding `CC(=O)Nc1cc2[nH]cnc2c(Br)n1`, the survivor count is, setting by setting: (T/C endpoint: mean survival time, dose: 200.0 mg/kg/injection, schedule: Q01DX005 (ip), vehicle: saline) 1 of 4; (T/C endpoint: mean survival time, dose: 400.0 mg/kg/injection, schedule: Q01DX005 (ip), vehicle: saline) 0 of 4.
For the compound `C#CCN(CC#C)C(C)=O`, where the note is “T/C endpoint: mean survival time, dose: 400.0 mg/kg/injection, schedule: Q04DX002 (ip), vehicle: saline”, the survivor count is 0 of 3.
Consider `O=c1ccnc(SCc2ccc(Cl)cc2)[nH]1`, for which, where the note is “T/C endpoint: mean survival time, dose: 200.0 mg/kg/injection, schedule: Q01DX Z (ip), vehicle: methylcellulose (MC)”, the survivor count is recorded as 6 of 6.
As to `CCCC1=Cc2cc3c(cc2C1N(C)C)OCO3` (configuration not stated), the survivor count under setting [2] is 2 of 3.
Consider `CC(=O)c1coc(=O)cc1O`, for which the survivor count (T/C endpoint: mean survival time, dose: 200.0 mg/kg/injection, schedule: Q01DX001 (ip), vehicle: Klucel (hydroxypropylcellulose) (HPC)) is 5 of 6 and the survivor count under setting [2] was 2 of 6.
`O=[N+]([O-])c1cccc2nc(N/N=C/c3ccccc3O)ccc12`: for the setting “T/C endpoint: mean survival time, dose: 100.0 mg/kg/injection, schedule: Q01DX009 (ip), vehicle: water”, the survivor count is recorded as 6 of 6.
In the case of `N#CS/C=C/C(N)=O`, the survivor count runs as follows: (T/C endpoint: mean survival time, dose: 12.5 mg/kg/injection, schedule: Q01DX001 (ip), vehicle: saline) 2 of 6; (T/C endpoint: mean survival time, dose: 25.0 mg/kg/injection, schedule: Q01DX001 (ip), vehicle: saline) 0 of 6; (T/C endpoint: mean survival time, dose: 50.0 mg/kg/injection, schedule: Q01DX001 (ip), vehicle: saline) 1 of 6; under setting [3], 0 of 6; under setting [4], 0 of 6; under setting [5], 0 of 6.
For `COC(=O)c1cccc(N=NN(C)C)c1`, the T/C by setting is: (T/C endpoint: median survival time, dose: 39.0 mg/kg/injection, schedule: Q01DX009 (ip), vehicle: steroid suspending solution) 130 % of control; (T/C endpoint: median survival time, dose: 65.0 mg/kg/injection, schedule: Q01DX009 (ip), vehicle: steroid suspending solution) 130 % of control; (T/C endpoint: median survival time, dose: 180.0 mg/kg/injection, schedule: Q04DX003 (ip), vehicle: steroid suspending solution) 125 % of control. Moreover, the survivor count is 8 of 8 (T/C endpoint: median survival time, dose: 108.0 mg/kg/injection, schedule: Q01DX009 (ip), vehicle: steroid suspending solution) and 5 of 8 (T/C endpoint: median survival time, dose: 500.0 mg/kg/injection, schedule: Q01DX001 (ip), vehicle: steroid suspending solution).
Consider `Cc1cc(NC(C)C)c(C)cc1NC(C)C`, for which the survivor count by setting is: under setting [6], 1 of 3; under setting [7], 0 of 3; under setting [8], 0 of 3; under setting [9], 0 of 3.
As for `COC(=O)C(=O)CC(=O)c1cccc(Cl)c1`, the survivor count reads like this: under setting [7], 3 of 3; under setting [8], 2 of 3; under setting [9], 0 of 3.
Turning to `O=c1cc(CBr)c2ccccc2[nH]1`, the survivor count was 4 of 6 (T/C endpoint: mean survival time, dose: 25.0 mg/kg/injection, schedule: Q01DX009 (ip), vehicle: saline with Tween-80); 2 of 6 under setting [3]; 0 of 6 under setting [4]; 0 of 6 under setting [5].
As for `CCCCN(C)c1ncnc2[nH]ncc12`, the T/C (T/C endpoint: mean survival time, dose: 100.0 mg/kg/injection, schedule: Q01DX009 (ip), vehicle: saline) was 130 % of control. In addition, the survivor count is 0 of 6 (T/C endpoint: mean survival time, dose: 200.0 mg/kg/injection, schedule: Q01DX009 (ip), vehicle: saline) and 0 of 6 under setting [5].
For `CC12CC3CC(C)(C1)CC(CN=C(N)CCl)(C3)C2`, the survivor count (T/C endpoint: mean survival time, dose: 25.0 mg/kg/injection, schedule: Q01DX009 (ip), vehicle: Klucel (hydroxypropylcellulose) (HPC)) is on record as 2 of 3; the survivor count under setting [6] is 1 of 3; the survivor count under setting [7] is 0 of 3; the survivor count under setting [8] is on record as 0 of 3; the survivor count under setting [9] was 0 of 3.
On to `CCCCCCCCCCCC(=O)N/N=C/c1ccccc1OC`, for which the survivor count is recorded as 6 of 6 (T/C endpoint: mean survival time, dose: 200.0 mg/kg/injection, schedule: Q01DX009 (ip), vehicle: Klucel (hydroxypropylcellulose) (HPC)) and 6 of 6 (T/C endpoint: mean survival time, dose: 400.0 mg/kg/injection, schedule: Q01DX009 (ip), vehicle: Klucel (hydroxypropylcellulose) (HPC)).
Consider `C=CCC1(OC(C)=O)CCN(C)CC1`, for which the survivor count reads like this: (T/C endpoint: mean survival time, dose: 150.0 mg/kg/injection, schedule: Q01DX001 (ip), vehicle: saline) 2 of 6; (T/C endpoint: mean survival time, dose: 300.0 mg/kg/injection, schedule: Q01DX001 (ip), vehicle: saline) 0 of 6.
In the case of `CC(=O)/C=C/c1ccc([N+](=O)[O-])o1`, under setting [2], the survivor count is 1 of 6.
`CC(CC12CC3CC(CC(C3)C1)C2)NN` (configuration not stated): the survivor count is, setting by setting: under setting [7], 2 of 3 and 3 of 3; under setting [8], 0 of 3; under setting [9], 0 of 3.
Take `C=CCNC(=S)Nc1ccc(N(C)C)cc1`: under setting [1], the survivor count was 6 of 6.
The same measure, in the same setting: in the case of `COc1ccc(OC)c(NC(=O)CS)c1` it was 4 of 6.
Take `CC(=O)Nc1ccc(OCCOC(=O)Nc2ccc(Cl)c(C(F)(F)F)c2)cc1`: the T/C reads like this: under setting [10], 89, 95, 101 % of control; under setting [11], 93 and 94 % of control; (T/C endpoint: mean survival time, dose: 100.0 mg/kg/injection, schedule: Q04DX002 (ip), vehicle: carboxymethylcellulose (CMC)) 93, 94 (2×), 95 % of control; under setting [12], 86, 87, 90 % of control. For the same compound, the survivor count is, setting by setting: under setting [10], 3 of 3; under setting [11], 6 of 6; under setting [12], 6 of 6.
